Source: PubChem BioAssay AID720505 (Drosophila RNAi Screening Center, 2013)
Screen: 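Genes needed for store-operated calcium entry in fly cells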 (primary screen). Cell system: Drosophila S2R+ cells. Reagent: long dsRNA against Drosophila genes. Conditions: thapsigargin (2 µM) in calcium-free buffer to empty internal stores, then 2 mM calcium added back. Read-out: 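Stores emptied by 2 µM thapsigargin without calcium, then 2 mM calcium re-added; fluo-4 fluorescence followed by FLIPR in 384-well plates, per-well averaged endpoint, raw; two screen passes, some wells retested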. Reading the numbers: calcium signal and retest calcium signal: higher = more calcium entry after store depletion. Rule for the call: 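About 1500 genes called as lowering calcium entry, by varying amounts, judged against per-plate control wells with STIM1 as positive and Rho1 as negative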. Meaning of the calls: active = called as lowering calcium entry; inactive = not called.
The screen tested about 20,000 reagents; shown is an unselected part of those with a known target gene and a result. In the full data, about 2,100 (10%) were called active. 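Raw plate signals without normalisation; calls rest on control-based scores that were not deposited; replicate 2 separates called from uncalled poorly.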 A plus sign joins genes that one reagent is predicted to hit. Reagent sequences are not shown. Not given: the amount of reagent, the time to read-out.

gene | DRSC id | calcium signal, replicate 1 | calcium signal, replicate 2 | retest calcium signal, replicate 1 | retest calcium signal, replicate 2 | Outcome
pico | DRSC19430 | 76.8 | 120 | – | – | inactive
CG3345 | DRSC00596 | 73.9 | 168 | – | – | inactive
Ctr9 | DRSC08562 | 124 | 149 | – | – | inactive
ocm (over compensating males) | DRSC04360 | 131 | 77 | – | – | inactive
CG5521 | DRSC15828 | 128 | 146 | – | – | active
Acsx3 (Acyl-CoA synthetase X3) | DRSC14309 | 138 | 301 | – | – | inactive
COX5B (Cytochrome c oxidase subunit 5B) | DRSC02115 | 111 | 82.4 | – | – | inactive
CG5103 | DRSC10481 | 82.3 | 162 | – | – | inactive
CR31054 (pseudo) | DRSC22134 | 97.6 | 172 | – | – | inactive
Sox15 (Sox box protein 15) | DRSC07555 | 123 | 148 | – | – | inactive
bol (boule) | DRSC10444 | 102 | 90.7 | – | – | inactive
bol (boule) | DRSC11329 | 88.8 | 89.1 | – | – | inactive
IKKepsilon (I-kappaB kinase epsilon) | DRSC03550 | 201 | 121 | – | – | inactive
CG32801 | DRSC17964 | 109 | 165 | – | – | inactive
eyg (eyegone) | DRSC11344 | 74.7 | 68 | – | – | active
eyg (eyegone) | DRSC23136 | 96.9 | 135 | – | – | inactive
CG14628 | DRSC18626 | 92.1 | 113 | – | – | inactive
Tspo + rempA | DRSC00533 | 172 | 200 | – | – | inactive
Npc2a (Niemann-Pick type C-2a) | DRSC00698 | 104 | 121 | – | – | inactive
Rev1 (DNA polymerase Rev1) | DRSC08264 | 62.3 | 108 | – | – | active
Gp210 (Glycoprotein 210 kDa) | DRSC04861 | 167 | 218 | – | – | inactive
Gp210 (Glycoprotein 210 kDa) | DRSC04900 | 101 | 158 | – | – | inactive
Trm1 (tRNA methyltransferase 1) | DRSC02951 | 75.2 | 87.5 | – | – | inactive
CG5446 | DRSC02862 | 116 | 142 | – | – | inactive
CG14787 | DRSC18606 | 109 | 105 | – | – | inactive
CCHa1-R (CCHamide-1 receptor) | DRSC06456 | 158 | 138 | – | – | inactive
CCHa1-R (CCHamide-1 receptor) | DRSC06715 | 178 | 166 | – | – | inactive
E(Pc) (Enhancer of Polycomb) | DRSC05281 | 83.9 | 69.7 | – | – | active
E(Pc) (Enhancer of Polycomb) | DRSC07408 | 88.8 | 137 | – | – | inactive
CG10822 | DRSC06005 | 192 | 123 | – | – | inactive
CG12986 | DRSC19506 | 89.9 | 126 | – | – | inactive
CG7071 + Muted | DRSC16189 | 196 | 177 | – | – | inactive
CG1896 | DRSC15397 | 111 | 80.3 | – | – | inactive
ImpL1 (Ecdysone-inducible gene L1) | DRSC11197 | 112 | 80.2 | – | – | inactive
CG14427 | DRSC17921 | 218 | 103 | – | – | inactive
CG10646 | DRSC09764 | 99.2 | 93.9 | – | – | inactive
CG12945 | DRSC14573 | 128 | 73.2 | – | – | inactive
mrva (minerva) | DRSC11009 | 109 | 73.3 | 159 | 139 | inactive
mrva (minerva) | DRSC21842 | 68.2 | 112 | – | – | inactive
CG1598 | DRSC06598 | 96.8 | 125 | – | – | inactive
CG32532 | DRSC19556 | 174 | 101 | – | – | inactive
CG32532 | DRSC19557 | 171 | 83.7 | – | – | inactive
CG32532 | DRSC19558 | 75.4 | 196 | – | – | active
CG32532 | DRSC21370 | 125 | 106 | – | – | inactive
sa (spermatocyte arrest) | DRSC11649 | 56.7 | 196 | 7881 | 146 | active
side (sidestep) | DRSC14523 | 154 | 168 | 6127 | 162 | inactive
side (sidestep) | DRSC14716 | 171 | 137 | – | – | inactive
side (sidestep) | DRSC14717 | 172 | 167 | – | – | inactive
side (sidestep) | DRSC14718 | 170 | 123 | – | – | inactive
side (sidestep) | DRSC14721 | 155 | 122 | – | – | inactive
CG2278 | DRSC18226 | 242 | 153 | – | – | inactive
sro (shroud) | DRSC14469 | 123 | 113 | 6743 | 140 | inactive
Rpn10 (Regulatory particle non-ATPase 10) | DRSC11876 | 79.6 | 176 | – | – | inactive
Gpo1 (Glycerophosphate oxidase 1) | DRSC07128 | 156 | 133 | – | – | inactive
Strump (Strumpellin) | DRSC09872 | 92.5 | 160 | – | – | inactive
eas (easily shocked) | DRSC20329 | 108 | 129 | – | – | inactive
CG33309 | DRSC01421 | 158 | 94.2 | – | – | inactive
CG18302 | DRSC02663 | 199 | 144 | – | – | inactive
SmE (Small ribonucleoprotein particle protein SmE) | DRSC02680 | 86.5 | 99.6 | – | – | inactive
CG1273 | DRSC08291 | 128 | 121 | – | – | inactive
Snp (Snipper) | DRSC04524 | 71.9 | 178 | – | – | inactive
Snp (Snipper) | DRSC21538 | 224 | 101 | – | – | inactive
CG12645 | DRSC17851 | 70 | 100 | – | – | active
Vha68-2 (Vacuolar H[+] ATPase 68 kDa subunit 2) | DRSC02721 | 114 | 101 | – | – | inactive
ZIPIC (Zinc-finger protein interacting with CP190) | DRSC16349 | 126 | 151 | – | – | inactive
CG3402 | DRSC08567 | 70.7 | 114 | – | – | active
thoc7 | DRSC08512 | 135 | 128 | – | – | inactive
CG10139 | DRSC05972 | 180 | 162 | – | – | inactive
Ts (Thymidylate synthase) | DRSC00795 | 87.3 | 90.9 | – | – | inactive
Ts (Thymidylate synthase) | DRSC22168 | 100 | 257 | – | – | inactive
Best4 (Bestrophin 4) | DRSC10792 | 82.1 | 130 | – | – | inactive
CG12769 | DRSC06167 | 165 | 115 | – | – | inactive
Pmm2 (Phosphomannomutase type 2) | DRSC09780 | 84 | 118 | – | – | inactive
CG13965 | DRSC02307 | 158 | 93.5 | – | – | inactive
Mlf (Myelodysplasia/myeloid leukemia factor) | DRSC07472 | 100 | 86.2 | – | – | inactive
Desat2 (Desaturase 2) | DRSC15919 | 157 | 116 | – | – | inactive
CG33489 | DRSC10588 | 120 | 132 | – | – | inactive
CG13739 | DRSC06410 | 139 | 153 | – | – | inactive
CG13739 | DRSC23200 | 96 | 176 | – | – | inactive
CG17234 | DRSC00490 | 151 | 129 | – | – | inactive
Samuel | DRSC02156 | 176 | 161 | – | – | inactive
Samuel | DRSC02401 | 165 | 141 | – | – | inactive
Samuel | DRSC02402 | 225 | 141 | – | – | inactive
Samuel | DRSC21731 | 109 | 88.2 | – | – | inactive
Samuel | DRSC23114 | 100 | 133 | – | – | inactive
eIF5B (eukaryotic translation initiation factor 5B) | DRSC08429 | 93.9 | 116 | – | – | inactive
eIF5B (eukaryotic translation initiation factor 5B) | DRSC08710 | 72.3 | 97 | – | – | inactive
Pepck1 (Phosphoenolpyruvate carboxykinase 1) | DRSC07505 | 160 | 168 | – | – | inactive
syd (sunday driver) | DRSC10963 | 84.8 | 88.1 | – | – | inactive
CG5065 | DRSC06912 | 133 | 122 | – | – | inactive
Argk1 (Arginine kinase 1) | DRSC08959 | 8191 | 206 | – | – | inactive
Argk1 (Arginine kinase 1) | DRSC09668 | 75.9 | 61 | – | – | inactive
Argk1 (Arginine kinase 1) | DRSC10460 | 116 | 94.9 | – | – | inactive
Argk1 (Arginine kinase 1) | DRSC21558 | 147 | 86.3 | – | – | inactive
Argk1 (Arginine kinase 1) | DRSC22665 | 85.2 | 132 | – | – | inactive
CG10877 | DRSC14274 | 245 | 223 | – | – | inactive
sNPF-R (short neuropeptide F receptor) | DRSC10836 | 101 | 89.8 | – | – | inactive
CheB42c (Chemosensory protein B 42c) | DRSC04972 | 89 | 170 | – | – | inactive
Eno (Enolase) | DRSC00750 | 176 | 118 | – | – | inactive
Septin5 (Septin 5) | DRSC06843 | 157 | 134 | – | – | inactive
Klp67A (Kinesin-like protein at 67A) | DRSC11205 | 62.3 | 59.8 | – | – | inactive
CG33128 | DRSC00294 | 64.7 | 198 | 180 | 99.1 | active
CG8435 | DRSC07179 | 141 | 108 | – | – | inactive
CG3308 | DRSC15474 | 185 | 204 | – | – | inactive
CG44251 | DRSC06856 | 126 | 132 | – | – | inactive
CG8180 | DRSC07092 | 173 | 139 | – | – | inactive
CG8180 | DRSC07093 | 149 | 158 | – | – | inactive

An excerpt from above, reduced to “calcium signal, replicate 1”:
Trm1 (tRNA methyltransferase 1) [DRSC02951]: 75.2
CG5446 [DRSC02862]: 116
CG14787 [DRSC18606]: 109
CCHa1-R (CCHamide-1 receptor) [DRSC06456]: 158
CCHa1-R (CCHamide-1 receptor) [DRSC06715]: 178
E(Pc) (Enhancer of Polycomb) [DRSC05281]: 83.9
E(Pc) (Enhancer of Polycomb) [DRSC07408]: 88.8
CG10822 [DRSC06005]: 192
